Test results from PubChem BioAssay AID2685 (National Center for Advancing Translational Sciences (NCATS), 2010).
The list shows a part of the results. Shown are side measurements of this screen, not its main read-out; they come without a call. Most of these compounds were active or inconclusive in the main read-out, so they are no random draw. Potencies come from curve fits of mixed quality, noted in brackets.

Experiment: qHTS Assay for Lipid Storage Modulators in Drosophila S3 Cells;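 on cell number change: cells counted by Cell Tracker Red CMTPX staining in the red channel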
Conditions: BODIPY lipid droplet fluorescence, 18-24 h; for cell number change: measured here: cell count max response, cells fed with added oleic acid
Method in brief: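 Drosophila S3 cells got compounds at several concentrations plus oleic acid (400 uM solution). Laser-scanning cytometry with 488 nm excitation read lipid droplets at 500-530 nm and cells at 575-640 nm. Percent activity was relative to 20 uM Triacsin C.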

[1] = measured here: lipid fluorescence (Fed channel) AC50, cells fed with added oleic acid
[2] = measured here: cell number channel AC50, cells fed with added oleic acid

Row | SMILES | cell number change [%] | AC50 [1] | AC50 [2]
1 | Cc1ccc(C)c(N2N=C(C(=O)O)CCC2=O)c1 | -18.2 | 6.51 µM [falling, full curve, poor fit] | –
2 | CCOC(=O)NC(O)C(=O)c1cccs1 (stereo unspecified) | -40.2 | 29.1 µM [falling, single point] | 29.1 µM [falling, single point]
3 | CC1CCCCN1C(=O)CCNC(=O)Cn1cnc2ccccc2c1=O (stereo unspecified) | 14 | 29.1 µM [rising, single point] | –
4 | O=C(Cn1c(=O)oc2ccccc21)NC(=O)NCc1ccco1 | 17.9 | – | –
5 | CCOC(=O)C1=C(N)OC2=C(C(=O)CC(C)C2)C1c1cccnc1 (stereo unspecified) | 3.63 | 0.116 µM [rising, full curve, poor fit] | –
6 | O=C(NCc1ccccc1)C1CCCN(C(=O)Nc2ccccc2)C1 (stereo unspecified) | 4.71 | 6.51 µM [rising, single point] | –
7 | CCOC(=O)c1cc2c(=O)n3ccccc3nc2n(Cc2ccco2)c1=NC(=O)c1ccccc1OC | 43.1 | – | 0.731 µM [rising, full curve, poor fit]
8 | Cc1cc(C)c(C(=O)/C=C/c2ccco2)c(=O)[nH]1 | 3.98 | 0.00731 µM [rising, full curve, poor fit] | –
9 | O=C(CSc1nccn1-c1ccccc1)N1CCc2ccccc21 | -0.533 | – | –
10 | COc1cc(NC(=O)c2oc3ccccc3c2C)ccc1NC(=O)c1ccco1 | 15.2 | – | –
11 | Cc1ccc(C)c(SCC(=O)OCC(=O)c2ccco2)c1 | 5.38 | 29.1 µM [falling, single point] | –
12 | COn1c(C)c(C(C)=O)c2c3nonc3ccc21 | 2.81 | 2.31 µM [rising, partial curve] | –
13 | CCOC(=O)c1c(C)oc2ccc(O)c(CN(C)C)c12 | -205 | 20.6 µM [falling, partial curve] | 20.6 µM [falling, partial curve]
14 | COc1ccc(OC)c2[nH]c(=O)c(CCNC(=O)CC(C)C)cc12 | – | 2.91 µM [rising, partial curve] | 3.26 µM [rising, partial curve]
15 | Cc1nc2nc[nH]n2c(=O)c1NS(=O)(=O)c1ccc([N+](=O)[O-])cc1 | -19.5 | 29.1 µM [falling, single point] | –
16 | Nc1nc2ccccc2n1C(=O)c1ccc(F)cc1 | 18.5 | 29.1 µM [rising, single point] | –
17 | N#C/C(=C\c1ccc2c(c1)OCO2)C(=O)NCc1ccco1 | – | 4.11 µM [rising, single point] | 6.51 µM [rising, single point]
18 | c1ccc(-c2cc(N3CCOCC3)nc(-c3ccccc3)n2)cc1 | -14.1 | 1.64 µM [rising, full curve] | –
19 | Cc1ccc(S(C)(=O)=O)cc1C(=O)OCC(=O)N(Cc1ccccc1)Cc1ccccc1 | -23 | 0.146 µM [rising, full curve, poor fit] | –
20 | Clc1ccccc1-c1nnc2sc(-c3ccco3)nn12 | -20.2 | – | –

Row | SMILES | cell number change [%] | AC50 [1] | AC50 [2]
21 | COc1ccccc1-c1nc2ccccc2c(=O)n1NC(=O)c1cccs1 | -53.9 | 32.6 µM [falling, single point] | 29.1 µM [falling, single point]
22 | C=CCN(CC=C)C(=O)c1ccccc1NC(=O)c1ccccc1C | -21.2 | – | –
23 | CCOc1ccc(Nc2ccc([N+](=O)[O-])c3nonc23)cc1 | -40.6 | – | 29.1 µM [falling, single point]
24 | COc1cc(NC(=O)c2cnn3c(C)cc(C)nc23)c(OC)cc1Cl | 90.2 | 6.51 µM [rising, single point] | 5.17 µM [rising, full curve]
25 | C=C(C)c1cccc(C(C)(C)NC(=O)NCCCn2ccnc2)c1 | 6.08 | 0.291 µM [rising, single point] | –
26 | COc1cc(C(=O)NCCC2=CCCCC2)ccc1OCc1c(C)noc1C | 1.13 | – | –
27 | Cc1ccc(NC(=O)Cn2c([N+](=O)[O-])cnc2C)cc1Cl | 143 | – | 25.9 µM [rising, partial curve, poor fit]
28 | COc1cc(OC)c(NC(=S)Nc2cc(Cl)cc(Cl)c2)cc1Cl | -36.2 | 1.84 µM [rising, partial curve, poor fit] | 29.1 µM [falling, single point]
29 | O=S(=O)(N1CCCCCC1)N1CCNCC1 | 10.3 | 10.3 µM [rising, partial curve] | –
30 | Cn1c(O)c(N=NC(=O)Cn2c(C(F)(F)F)nc3ccccc32)c2ccccc21 | 0.294 | 20.6 µM [rising, single point] | –
31 | Cc1ccc(CCC(=O)Nc2ccccc2F)s1 | 31.4 | – | 14.6 µM [rising, partial curve, poor fit]
32 | CCCSc1ccc([C@H]2N[C@@](CC(C)C)(C(=O)OC)[C@H]3C(=O)N(C)C(=O)[C@@H]23)cc1 | -38.7 | – | 20.6 µM [falling, single point]
33 | Cc1cccc(N2N=C(C(=O)Nc3nc(C)cs3)CCC2=O)c1 | -5.2 | 0.103 µM [rising, single point] | –
34 | COc1ccc2[nH]cc(CCNC(=O)c3ccco3)c2c1 | -31 | 0.0326 µM [rising, full curve, poor fit] | 25.9 µM [falling, single point]
35 | COc1cc(C(=S)N2CCN(C(c3ccccc3)c3ccccc3)CC2)cc(OC)c1O | -10.7 | 16.4 µM [falling, single point] | –
36 | O=C(c1cc(-c2ccccc2)on1)N1CCCCCC1 | 16.8 | – | 2.31 µM [rising, partial curve]
37 | COc1ccc(Cc2nc3ccc(C(=O)N4CCCC4)cc3o2)cc1OC | -13.8 | 6.51 µM [rising, partial curve, poor fit] | –
38 | Cc1cc2c(sc3ccccc32)c(C)n1 | 26.5 | 0.0092 µM [falling, full curve, poor fit] | –
39 | O=S1(=O)N=C(Nc2ccc(O)c(CN3CCCCC3)c2)c2ccccc21 | -16.5 | 0.366 µM [rising, full curve, poor fit] | –
40 | Cc1noc(C)c1CSCC(=O)N(CCC(C)C)c1c(N)n(Cc2ccccc2)c(=O)[nH]c1=O | – | 18.4 µM [rising, single point] | –

Individual results from the list.
Value for `CCOC(=O)c1cc2c(=O)n3ccccc3nc2n(Cc2ccco2)c1=NC(=O)c1ccccc1OC` under AC50 [2]: 0.731 µM [rising, full curve, poor fit]
Value for `CCCSc1ccc([C@H]2N[C@@](CC(C)C)(C(=O)OC)[C@H]3C(=O)N(C)C(=O)[C@@H]23)cc1` under cell number change [%]: -38.7

More records:

Row | SMILES | cell number change [%] | AC50 [1] | AC50 [2]
41 | O=C(Nc1ccccc1)Nc1ccc(Cl)c([N+](=O)[O-])c1 | -48 | 0.13 µM [falling, full curve, poor fit] | 32.6 µM [falling, single point]
42 | CCN1CCCC1CNC(=O)C(=O)NCCc1ccc(OC)c(OC)c1 (stereo unspecified) | 1.02 | 1.84 µM [falling, partial curve, poor fit] | –
43 | O=C(NC1CCCCCC1)C1CCCN1S(=O)(=O)c1cccc2cccnc12 (stereo unspecified) | 4.74 | 0.00461 µM [rising, full curve, poor fit] | –
44 | CC(=O)Nc1ccc(NC(=O)COC(=O)c2ccc(Cl)nc2)cc1 | 3 | – | –
45 | CCOC(=O)c1[nH]c(C)c(C(=O)Nc2ccc(C)c(Cl)c2)c1C | -26.7 | 11.6 µM [falling, single point] | –
46 | COc1ccc(/C=C(\NC(=O)c2cccs2)C(=O)Nc2cccc3ccccc23)cc1OC | -67.9 | 3.26 µM [falling, full curve] | 2.06 µM [falling, full curve]
47 | Cc1ccccc1N1Cc2ccccc2C1 | -41.5 | 14.6 µM [falling, partial curve] | 14.6 µM [falling, partial curve]
48 | COc1cccc(NC(=O)N2CCCc3ccccc32)c1 | 36.9 | 29.1 µM [rising, single point] | 29.1 µM [rising, single point]
49 | Cc1cc(C)cc(OCC(=O)Nc2ccc3c4c(cccc24)CC3)c1 | -34.6 | 7.31 µM [falling, partial curve] | 29.1 µM [falling, single point]
50 | COc1ccc(CCN(Cc2nc3ccccc3c(=O)[nH]2)C(=O)c2ccco2)cc1OC | 5.35 | 0.731 µM [rising, full curve, poor fit] | –
51 | CC(NC(=O)Cc1ccccc1)c1cc2c(cc1Br)OCCCO2 (stereo unspecified) | 0.677 | – | 6.51 µM [rising, single point]
52 | CC(=O)NC(CCS(C)(=O)=O)C(=O)N1CCc2ccccc21 (stereo unspecified) | – | 6.51 µM [falling, single point] | 6.51 µM [falling, single point]
53 | CCc1ccccc1NC(=S)N(CCN(C)C)C(C)c1ccco1 (stereo unspecified) | 5.91 | – | 6.51 µM [falling, single point]
54 | COc1ccc(-c2nc3ccc(C)cn3c2NCc2ccc3c(c2)OCO3)cc1 | -15.2 | 18.4 µM [falling, single point] | –
55 | CC(C)CO/C(=N/S(=O)(=O)c1ccccc1)c1ccccc1 | -122 | – | 29.1 µM [falling, partial curve]
56 | CCn1c(SCc2nc3cc(OC)c(OC)cc3c(=O)[nH]2)nnc1-c1ccncc1 | 5.11 | 0.00517 µM [rising, full curve, poor fit] | –
57 | CCc1nc2ccccc2c(C(=O)O)c1C | -36.3 | 7.31 µM [falling, partial curve] | 1.16 µM [falling, full curve]
58 | COc1ccc(NS(=O)(=O)c2cccc(C(=O)NCC(c3ccc(F)cc3)N3CCOCC3)c2)cc1 (stereo unspecified) | -38.4 | 0.82 µM [falling, single point] | 9.2 µM [falling, partial curve, poor fit]
